Test results from patent EP1745783A1, “Substituted pyrazoline compounds, their preparation and use as medicaments” (Laboratorios del Dr. Esteve S.A., priority 2005, dated 2007).
At least one structure is not confirmed: it was looked up by name or label, or the drawing left a doubt.

Key:
[1] = In-vivo testing for antiobesic activity; conditions: rats
[2] = In-vivo testing for antidepressant activity, water despair test

O=C(NN1CCCCC1)C1=NN(c2ccc(Cl)cc2Cl)C(c2ccc(Cl)cc2)C1 (centres unmarked) [Example 1, N-piperidinyl-5-(4-chlorophenyl)-1-(2,4-dichlorophenyl)-4,5-dihydro-1H-pyrazole-3-carboxamide]
body weight ([1]; 10 mg/kg body weight intraperitoneally daily over 14 days, Figure 1): lowered
food intake ([1]; 10 mg/kg body weight intraperitoneally daily over 14 days, Figure 2): reduction
body weight effect after the treatment is ended ([1]; after 14 days of 10 mg/kg intraperitoneally daily, Figure 1): also observed after the treatment is ended
immobility time [2]: positive effects
struggling time [2]: positive effects
